{"sequences": {"note": "Protein sequences, listed by entry. Tags and fused reporters are not part of them. Lines headed by an entry give the natural chain unless they say otherwise; changes in a name come on top.", "UniProt Q8IWI9": "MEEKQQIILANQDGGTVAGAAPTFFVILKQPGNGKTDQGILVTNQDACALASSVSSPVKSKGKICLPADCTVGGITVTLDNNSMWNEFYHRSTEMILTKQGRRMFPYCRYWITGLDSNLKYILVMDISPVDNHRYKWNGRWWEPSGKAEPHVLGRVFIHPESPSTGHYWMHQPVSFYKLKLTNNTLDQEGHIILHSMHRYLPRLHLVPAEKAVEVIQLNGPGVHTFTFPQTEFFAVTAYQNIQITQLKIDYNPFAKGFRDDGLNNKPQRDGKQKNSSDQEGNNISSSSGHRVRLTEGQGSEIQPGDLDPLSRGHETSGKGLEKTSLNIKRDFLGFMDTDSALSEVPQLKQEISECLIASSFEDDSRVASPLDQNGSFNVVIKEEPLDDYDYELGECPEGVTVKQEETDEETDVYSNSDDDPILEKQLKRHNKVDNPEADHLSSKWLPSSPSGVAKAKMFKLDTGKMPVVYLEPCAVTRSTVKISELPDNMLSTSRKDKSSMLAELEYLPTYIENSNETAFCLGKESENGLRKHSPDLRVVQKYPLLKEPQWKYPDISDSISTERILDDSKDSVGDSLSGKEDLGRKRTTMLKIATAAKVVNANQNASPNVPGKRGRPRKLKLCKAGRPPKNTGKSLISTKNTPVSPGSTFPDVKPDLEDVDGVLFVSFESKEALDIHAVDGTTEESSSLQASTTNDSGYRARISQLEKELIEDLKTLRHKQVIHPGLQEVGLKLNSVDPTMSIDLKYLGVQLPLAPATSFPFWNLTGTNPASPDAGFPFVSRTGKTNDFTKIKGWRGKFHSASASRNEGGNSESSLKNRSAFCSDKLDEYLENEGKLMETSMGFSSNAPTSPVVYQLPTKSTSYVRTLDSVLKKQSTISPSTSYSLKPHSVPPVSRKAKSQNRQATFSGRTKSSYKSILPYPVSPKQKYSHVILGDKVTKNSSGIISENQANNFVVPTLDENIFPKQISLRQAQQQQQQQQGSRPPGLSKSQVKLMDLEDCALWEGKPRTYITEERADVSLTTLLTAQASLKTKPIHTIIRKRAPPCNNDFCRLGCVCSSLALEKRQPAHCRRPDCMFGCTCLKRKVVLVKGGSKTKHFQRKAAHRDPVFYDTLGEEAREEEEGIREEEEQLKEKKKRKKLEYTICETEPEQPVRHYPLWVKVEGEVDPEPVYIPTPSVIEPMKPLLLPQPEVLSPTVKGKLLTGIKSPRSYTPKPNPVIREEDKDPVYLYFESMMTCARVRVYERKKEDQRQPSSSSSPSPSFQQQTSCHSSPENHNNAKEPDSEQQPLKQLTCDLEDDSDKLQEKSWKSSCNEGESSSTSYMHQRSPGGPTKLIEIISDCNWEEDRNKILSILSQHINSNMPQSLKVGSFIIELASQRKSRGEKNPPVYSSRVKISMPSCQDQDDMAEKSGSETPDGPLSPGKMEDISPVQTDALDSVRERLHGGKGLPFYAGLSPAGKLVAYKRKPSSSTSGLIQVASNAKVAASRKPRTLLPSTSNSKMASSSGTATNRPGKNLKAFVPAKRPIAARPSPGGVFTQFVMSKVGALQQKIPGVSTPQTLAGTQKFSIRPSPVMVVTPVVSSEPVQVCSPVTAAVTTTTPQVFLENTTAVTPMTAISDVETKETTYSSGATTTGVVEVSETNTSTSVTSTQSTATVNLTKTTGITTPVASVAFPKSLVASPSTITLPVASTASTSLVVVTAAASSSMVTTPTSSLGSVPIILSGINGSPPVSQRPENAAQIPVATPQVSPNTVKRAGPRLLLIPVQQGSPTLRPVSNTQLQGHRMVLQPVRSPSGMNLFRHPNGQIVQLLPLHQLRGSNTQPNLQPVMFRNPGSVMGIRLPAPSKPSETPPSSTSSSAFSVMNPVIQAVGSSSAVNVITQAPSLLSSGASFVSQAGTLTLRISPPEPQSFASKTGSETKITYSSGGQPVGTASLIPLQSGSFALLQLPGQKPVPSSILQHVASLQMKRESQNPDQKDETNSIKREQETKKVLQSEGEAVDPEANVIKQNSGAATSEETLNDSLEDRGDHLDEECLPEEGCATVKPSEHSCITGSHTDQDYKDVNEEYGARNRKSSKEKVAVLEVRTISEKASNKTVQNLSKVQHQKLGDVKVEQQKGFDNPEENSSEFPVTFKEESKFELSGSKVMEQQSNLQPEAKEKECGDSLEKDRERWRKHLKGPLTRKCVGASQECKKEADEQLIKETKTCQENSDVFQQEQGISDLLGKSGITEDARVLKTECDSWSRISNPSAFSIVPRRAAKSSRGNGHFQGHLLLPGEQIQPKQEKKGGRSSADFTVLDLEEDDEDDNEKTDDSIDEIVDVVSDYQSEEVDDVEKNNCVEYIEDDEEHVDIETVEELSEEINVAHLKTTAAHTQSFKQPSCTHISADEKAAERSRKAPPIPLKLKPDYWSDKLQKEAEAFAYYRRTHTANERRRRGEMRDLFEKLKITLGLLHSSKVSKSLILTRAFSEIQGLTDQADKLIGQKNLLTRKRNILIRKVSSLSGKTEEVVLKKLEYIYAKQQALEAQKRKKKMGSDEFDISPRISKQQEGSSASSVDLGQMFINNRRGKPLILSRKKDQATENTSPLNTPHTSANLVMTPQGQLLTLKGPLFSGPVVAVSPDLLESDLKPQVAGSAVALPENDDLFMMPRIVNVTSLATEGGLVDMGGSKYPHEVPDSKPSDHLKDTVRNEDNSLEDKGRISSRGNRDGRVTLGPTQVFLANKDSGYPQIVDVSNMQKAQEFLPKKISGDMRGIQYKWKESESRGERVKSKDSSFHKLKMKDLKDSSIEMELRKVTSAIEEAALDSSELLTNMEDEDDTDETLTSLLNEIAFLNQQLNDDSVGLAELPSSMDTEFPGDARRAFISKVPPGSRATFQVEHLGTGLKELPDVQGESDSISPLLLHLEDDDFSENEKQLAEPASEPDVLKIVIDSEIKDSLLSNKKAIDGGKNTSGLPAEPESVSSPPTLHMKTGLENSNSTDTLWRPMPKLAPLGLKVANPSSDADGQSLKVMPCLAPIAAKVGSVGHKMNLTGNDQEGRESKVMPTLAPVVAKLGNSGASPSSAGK", "UniProt Q86WB0": "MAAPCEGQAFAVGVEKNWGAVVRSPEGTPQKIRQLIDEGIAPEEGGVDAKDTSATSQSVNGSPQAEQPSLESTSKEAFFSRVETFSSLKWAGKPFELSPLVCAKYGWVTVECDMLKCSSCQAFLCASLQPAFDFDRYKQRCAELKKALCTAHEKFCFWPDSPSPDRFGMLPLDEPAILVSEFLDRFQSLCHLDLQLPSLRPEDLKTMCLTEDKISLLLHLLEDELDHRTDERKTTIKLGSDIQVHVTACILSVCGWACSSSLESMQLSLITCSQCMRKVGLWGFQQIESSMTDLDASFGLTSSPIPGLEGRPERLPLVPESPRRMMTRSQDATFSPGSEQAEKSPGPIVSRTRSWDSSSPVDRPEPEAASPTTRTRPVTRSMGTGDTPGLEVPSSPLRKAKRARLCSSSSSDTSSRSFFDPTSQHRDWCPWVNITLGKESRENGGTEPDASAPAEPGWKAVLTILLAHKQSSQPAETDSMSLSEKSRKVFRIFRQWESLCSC", "UniProt Q86UP2": "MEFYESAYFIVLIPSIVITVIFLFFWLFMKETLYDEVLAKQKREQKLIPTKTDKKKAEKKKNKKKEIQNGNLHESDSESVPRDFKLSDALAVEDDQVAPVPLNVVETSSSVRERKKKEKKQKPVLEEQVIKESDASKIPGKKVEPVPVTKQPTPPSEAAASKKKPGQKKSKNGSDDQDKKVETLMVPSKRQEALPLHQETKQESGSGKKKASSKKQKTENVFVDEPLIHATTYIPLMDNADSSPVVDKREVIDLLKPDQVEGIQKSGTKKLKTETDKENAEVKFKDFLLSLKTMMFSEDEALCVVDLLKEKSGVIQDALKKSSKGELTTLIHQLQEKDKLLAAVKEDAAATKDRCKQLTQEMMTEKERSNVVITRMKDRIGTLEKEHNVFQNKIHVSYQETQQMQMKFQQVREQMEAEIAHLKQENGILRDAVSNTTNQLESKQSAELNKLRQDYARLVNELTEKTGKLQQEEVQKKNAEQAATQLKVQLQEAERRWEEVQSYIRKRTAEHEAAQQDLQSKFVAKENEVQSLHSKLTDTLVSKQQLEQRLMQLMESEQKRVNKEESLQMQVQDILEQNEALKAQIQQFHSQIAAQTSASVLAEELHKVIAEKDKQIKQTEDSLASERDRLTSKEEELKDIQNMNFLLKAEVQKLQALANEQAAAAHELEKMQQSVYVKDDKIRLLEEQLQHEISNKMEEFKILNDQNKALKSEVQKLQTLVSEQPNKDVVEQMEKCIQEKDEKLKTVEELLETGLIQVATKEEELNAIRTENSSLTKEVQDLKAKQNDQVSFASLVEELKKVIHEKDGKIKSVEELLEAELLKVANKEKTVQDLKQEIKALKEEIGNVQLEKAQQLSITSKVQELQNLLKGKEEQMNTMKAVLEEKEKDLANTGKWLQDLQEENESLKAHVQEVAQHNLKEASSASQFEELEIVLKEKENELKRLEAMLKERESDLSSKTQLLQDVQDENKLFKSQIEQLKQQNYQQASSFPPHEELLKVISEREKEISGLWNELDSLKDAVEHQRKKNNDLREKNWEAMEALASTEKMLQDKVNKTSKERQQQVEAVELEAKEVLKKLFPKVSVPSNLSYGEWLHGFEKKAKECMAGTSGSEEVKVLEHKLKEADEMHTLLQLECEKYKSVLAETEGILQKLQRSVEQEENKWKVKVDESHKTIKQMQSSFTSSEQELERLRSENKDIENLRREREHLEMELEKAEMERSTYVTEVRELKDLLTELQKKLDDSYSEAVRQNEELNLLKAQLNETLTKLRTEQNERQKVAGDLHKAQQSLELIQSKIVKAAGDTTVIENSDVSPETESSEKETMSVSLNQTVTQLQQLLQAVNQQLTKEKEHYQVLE", "UniProt Q8IYB1": "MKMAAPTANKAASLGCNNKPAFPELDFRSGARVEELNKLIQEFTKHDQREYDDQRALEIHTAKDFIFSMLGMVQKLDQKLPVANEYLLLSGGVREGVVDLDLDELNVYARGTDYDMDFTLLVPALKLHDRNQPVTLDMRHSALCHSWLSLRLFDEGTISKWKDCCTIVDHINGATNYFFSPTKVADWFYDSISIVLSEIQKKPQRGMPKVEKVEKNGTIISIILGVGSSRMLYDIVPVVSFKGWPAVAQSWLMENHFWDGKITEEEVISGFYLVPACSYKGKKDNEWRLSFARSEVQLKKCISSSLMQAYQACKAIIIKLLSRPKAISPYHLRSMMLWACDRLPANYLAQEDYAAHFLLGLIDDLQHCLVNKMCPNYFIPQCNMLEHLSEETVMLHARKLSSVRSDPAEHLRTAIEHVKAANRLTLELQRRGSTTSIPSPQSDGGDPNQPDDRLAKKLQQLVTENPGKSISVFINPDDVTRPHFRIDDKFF", "UniProt Q7RTV0, whole entry, looked up": "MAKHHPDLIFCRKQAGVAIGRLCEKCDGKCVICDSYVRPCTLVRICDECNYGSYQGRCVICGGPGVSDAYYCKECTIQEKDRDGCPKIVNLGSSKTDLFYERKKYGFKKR", "UniProt Q86YS7": "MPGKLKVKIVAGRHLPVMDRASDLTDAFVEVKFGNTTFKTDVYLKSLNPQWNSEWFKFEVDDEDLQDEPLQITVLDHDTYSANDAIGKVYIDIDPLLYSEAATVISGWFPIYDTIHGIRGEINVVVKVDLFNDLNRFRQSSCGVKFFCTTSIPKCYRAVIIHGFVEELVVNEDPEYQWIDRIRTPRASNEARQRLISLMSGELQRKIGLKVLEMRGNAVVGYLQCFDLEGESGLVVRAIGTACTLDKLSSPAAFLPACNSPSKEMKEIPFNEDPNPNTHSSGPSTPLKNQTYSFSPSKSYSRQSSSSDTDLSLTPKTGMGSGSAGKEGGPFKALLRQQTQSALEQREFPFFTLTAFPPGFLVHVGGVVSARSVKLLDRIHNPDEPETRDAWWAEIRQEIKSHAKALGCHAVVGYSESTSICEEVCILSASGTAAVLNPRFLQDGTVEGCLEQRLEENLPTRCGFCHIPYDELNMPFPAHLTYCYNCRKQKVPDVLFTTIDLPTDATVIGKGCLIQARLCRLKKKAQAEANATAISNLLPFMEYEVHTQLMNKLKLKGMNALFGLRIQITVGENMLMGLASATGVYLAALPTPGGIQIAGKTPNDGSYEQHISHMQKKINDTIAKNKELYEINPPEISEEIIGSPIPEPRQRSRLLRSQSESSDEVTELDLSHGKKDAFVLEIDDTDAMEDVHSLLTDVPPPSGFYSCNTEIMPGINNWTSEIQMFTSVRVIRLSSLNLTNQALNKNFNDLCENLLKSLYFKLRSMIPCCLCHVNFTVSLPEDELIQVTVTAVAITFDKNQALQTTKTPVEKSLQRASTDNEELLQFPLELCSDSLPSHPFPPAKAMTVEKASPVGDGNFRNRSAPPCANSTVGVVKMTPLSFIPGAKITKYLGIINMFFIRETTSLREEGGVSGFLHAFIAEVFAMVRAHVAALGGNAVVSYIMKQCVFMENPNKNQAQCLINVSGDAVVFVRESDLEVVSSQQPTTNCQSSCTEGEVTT"}, "source": "the supplement of paper PMC11006884", "note": "The list shows a part of the results, in another mix than the full data.", "data": [{"compound": "COC(=O)C#Cc1ccccc1 [methyl 3-phenylpropiolate]", "experiment": "log2 ratio of iodoacetamide-alkyne labeling of the cysteine site, DMSO over compound (competition); higher = stronger covalent engagement of the cysteine by the compound, active = 1 or more", "settings": "500 µM; treatment time 1 h; system: HEK293T cell lysate", "procedure,_shortened": "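HEK293T lysate (2 mg/mL) was treated with DMSO or electrophile (500 µM, 1 h, ambient temperature), then iodoacetamide alkyne (1 h), clicked to sCIP-TMT reagents, pooled, trypsin-digested overnight at 37 °C, streptavidin-enriched and acid-eluted. Peptides were run on Orbitrap Eclipse LC-MS/MS with FAIMS and quantified in FragPipe. The log2 competition ratio per cysteine is mean control-channel over mean compound-channel reporter intensity. Duplicate channels and three replicates were used, and cysteines quantified in only one replicate were excluded.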", "values": [{"target": "MGA C2202 (UniProt Q8IWI9)", "log2 ratio of iodoacetamide-alkyne labeling": "inactive: 0.578"}, {"target": "MICAL3 C1760 (UniProt Q7RTP6)", "log2 ratio of iodoacetamide-alkyne labeling": "inactive: 0.281"}, {"target": "NCAPG2 C537 (UniProt Q86XI2)", "log2 ratio of iodoacetamide-alkyne labeling": "inactive: 0.003"}, {"target": "HUWE1 C3259 (UniProt Q7Z6Z7)", "log2 ratio of iodoacetamide-alkyne labeling": "inactive: 0.586"}, {"target": "ZC3HC1 C502 (UniProt Q86WB0)", "log2 ratio of iodoacetamide-alkyne labeling": "inactive: 0.388"}, {"target": "UniProt Q71F23_C38", "log2 ratio of iodoacetamide-alkyne labeling": "inactive: 0.418"}, {"target": "KTN1 C1105 (UniProt Q86UP2)", "log2 ratio of iodoacetamide-alkyne labeling": "inactive: 0.28"}, {"target": "FTSJ3 C577 (UniProt Q8IY81)", "log2 ratio of iodoacetamide-alkyne labeling": "inactive: 0.308"}, {"target": "UniProt Q8IYB1_C16", "log2 ratio of iodoacetamide-alkyne labeling": "inactive: 0.36"}, {"target": "ERC1 C258 (UniProt Q8IUD2)", "log2 ratio of iodoacetamide-alkyne labeling": "inactive: 0.276"}, {"target": "UBR2 C1619 (UniProt Q8IWV8)", "log2 ratio of iodoacetamide-alkyne labeling": "inactive: 0.0476"}, {"target": "UniProt Q86UD0_C195", "log2 ratio of iodoacetamide-alkyne labeling": "inactive: 0.728"}, {"target": "UniProt Q7RTV0_C75", "log2 ratio of iodoacetamide-alkyne labeling": "inactive: -0.269"}, {"target": "SND1 C826 (UniProt Q7KZF4)", "log2 ratio of iodoacetamide-alkyne labeling": "inactive: -0.12"}, {"target": "POGZ C547 (UniProt Q7Z3K3)", "log2 ratio of iodoacetamide-alkyne labeling": "inactive: -0.0245"}, {"target": "PDSS2 C71 (UniProt Q86YH6)", "log2 ratio of iodoacetamide-alkyne labeling": "inactive: 0.666"}, {"target": "SMC5 C881 (UniProt Q8IY18)", "log2 ratio of iodoacetamide-alkyne labeling": "inactive: 0.165"}, {"target": "IRF2BP1 C36 (UniProt Q8IU81)", "log2 ratio of iodoacetamide-alkyne labeling": "inactive: 0.0787"}, {"target": "USP48 C145 (UniProt Q86UV5)", "log2 ratio of iodoacetamide-alkyne labeling": "inactive: 0.0153"}, {"target": "UniProt Q7LBC6_C569", "log2 ratio of iodoacetamide-alkyne labeling": "inactive: 0.877"}, {"target": "PBRM1 C138 (UniProt Q86U86)", "log2 ratio of iodoacetamide-alkyne labeling": "inactive: 0.00396"}, {"target": "UniProt Q7LBC6_C509", "log2 ratio of iodoacetamide-alkyne labeling": "inactive: 0.346"}, {"target": "UniProt Q86Y56_C92", "log2 ratio of iodoacetamide-alkyne labeling": "inactive: 0.294"}, {"target": "TRMT2A C270 (UniProt Q8IZ69)", "log2 ratio of iodoacetamide-alkyne labeling": "inactive: 0.617"}, {"target": "THOC6 C279 (UniProt Q86W42)", "log2 ratio of iodoacetamide-alkyne labeling": "inactive: 0.192"}, {"target": "UniProt Q8IYL2_C666", "log2 ratio of iodoacetamide-alkyne labeling": "inactive: 0.579"}, {"target": "SETX C2451 (UniProt Q7Z333)", "log2 ratio of iodoacetamide-alkyne labeling": "inactive: 0.616"}, {"target": "CYFIP1 C179 (UniProt Q7L576)", "log2 ratio of iodoacetamide-alkyne labeling": "inactive: 0.212"}, {"target": "PBRM1 C50 (UniProt Q86U86)", "log2 ratio of iodoacetamide-alkyne labeling": "inactive: -0.144"}, {"target": "UniProt Q86YS7_C831", "log2 ratio of iodoacetamide-alkyne labeling": "inactive: 0.37"}, {"target": "PHC2 C740 (UniProt Q8IXK0)", "log2 ratio of iodoacetamide-alkyne labeling": "inactive: 0.351"}, {"target": "PXK C570 (UniProt Q7Z7A4)", "log2 ratio of iodoacetamide-alkyne labeling": "inactive: 0.571"}, {"target": "SUPT6H C575 (UniProt Q7KZ85)", "log2 ratio of iodoacetamide-alkyne labeling": "inactive: -0.0128"}, {"target": "USP48 C54 (UniProt Q86UV5)", "log2 ratio of iodoacetamide-alkyne labeling": "inactive: 0.174"}, {"target": "PNPLA6 C409 (UniProt Q8IY17)", "log2 ratio of iodoacetamide-alkyne labeling": "inactive: 0.4"}, {"target": "Q8F0_C443", "log2 ratio of iodoacetamide-alkyne labeling": "inactive: 0.302"}, {"target": "UniProt Q8IX90_C290", "log2 ratio of iodoacetamide-alkyne labeling": "inactive: -0.0728"}]}]}
